Assay results as given in patent US6225284A, “Somatostatin peptides” (Novartis AG, priority 1995, dated 2001).
Part of at least one peptide drawing is inferred or uncertain, most often the ends. Numbered stars: 1 amine (or outer) side, 2 acyl side, 3 side chain; on linkers, the order of the positions; unused ones are H or OH. Square brackets hold non-standard residues; d marks the D form. Side chains are listed from the residue outwards. Peptide text beside a SMILES is read from it. * marks the point of attachment. Ethylenediamine = C(CN[*:2])N[*:1]; Hyp = O=C(O)[C@@H]1C[C@@H](O)CN1; CO = O=C([*:1])[*:2]; Bn = c1ccc(C*)cc1

Tested on: rat kidney allograft
Assay: chronic allograft rejection, rat kidney allograft
Format: in vivo
Conditions: 1 to 10 μg/kg/h by infusion, rat kidney allograft model

**Q.** Which results are given for `NCCCC[C@@H]1NC(=O)[C@@H](Cc2c[nH]c3ccccc23)NC(=O)[C@H](Cc2ccccc2)NC(=O)[C@@H]2C[C@@H](OC(=O)NCCN)CN2C(=O)[C@H](Cc2ccccc2)NC(=O)[C@H](COCc2ccccc2)NC1=O` [Example 31] (cyclo(F[Hyp]([CO-Ethylenediamine])F[dW]KS(Bn)))?
**A.** IGF-1 levels: sharp drop; organ perfusion (MRI): improved organ perfusion
